Measurements from publication PMC12130296.
No constants are given. Whether binding was seen depends on the method and setting. Binding seen in cells or lysates may run through a third protein. A yes stands for co-enrichment or nearness to the bait. Other partners may have been found. For some assays here: No binding means not detected with the bait.

Chains of the proteins cited; added tags and fusions are not shown. Lines headed by an entry give the natural chain unless they say otherwise; changes in a name come on top.
UniProt Q13158: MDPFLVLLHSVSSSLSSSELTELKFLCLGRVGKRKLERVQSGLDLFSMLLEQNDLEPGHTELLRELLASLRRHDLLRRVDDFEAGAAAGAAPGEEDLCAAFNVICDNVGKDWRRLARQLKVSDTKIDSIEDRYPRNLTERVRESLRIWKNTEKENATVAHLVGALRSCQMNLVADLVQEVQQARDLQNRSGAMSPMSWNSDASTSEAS
UniProt Q9Y572: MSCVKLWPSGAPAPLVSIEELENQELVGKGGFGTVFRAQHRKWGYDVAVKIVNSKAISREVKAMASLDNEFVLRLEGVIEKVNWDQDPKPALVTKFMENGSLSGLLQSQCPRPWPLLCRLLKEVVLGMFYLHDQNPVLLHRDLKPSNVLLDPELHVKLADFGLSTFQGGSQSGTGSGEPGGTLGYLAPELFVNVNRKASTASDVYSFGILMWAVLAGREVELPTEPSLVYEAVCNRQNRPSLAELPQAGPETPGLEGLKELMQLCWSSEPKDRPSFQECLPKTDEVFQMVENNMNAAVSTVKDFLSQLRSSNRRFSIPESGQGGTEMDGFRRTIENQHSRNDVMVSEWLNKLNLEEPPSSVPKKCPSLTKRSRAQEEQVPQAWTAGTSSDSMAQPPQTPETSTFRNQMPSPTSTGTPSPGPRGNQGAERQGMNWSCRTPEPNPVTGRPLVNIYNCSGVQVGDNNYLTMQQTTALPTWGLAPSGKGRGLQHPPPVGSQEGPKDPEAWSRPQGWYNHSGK
UniProt P48023: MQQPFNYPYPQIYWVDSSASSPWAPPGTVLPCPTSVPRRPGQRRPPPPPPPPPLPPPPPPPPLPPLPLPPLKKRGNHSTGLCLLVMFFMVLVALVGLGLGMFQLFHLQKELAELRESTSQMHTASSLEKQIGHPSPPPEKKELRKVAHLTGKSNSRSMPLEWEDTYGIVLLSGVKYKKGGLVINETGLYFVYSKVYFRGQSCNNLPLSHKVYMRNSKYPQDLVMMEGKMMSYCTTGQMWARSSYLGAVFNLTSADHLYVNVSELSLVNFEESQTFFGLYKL

T1: MLKL (human (endogenous in HT29, SUIT-020 and Jurkat)) (UniProt Q8NB16)
T1 sequence: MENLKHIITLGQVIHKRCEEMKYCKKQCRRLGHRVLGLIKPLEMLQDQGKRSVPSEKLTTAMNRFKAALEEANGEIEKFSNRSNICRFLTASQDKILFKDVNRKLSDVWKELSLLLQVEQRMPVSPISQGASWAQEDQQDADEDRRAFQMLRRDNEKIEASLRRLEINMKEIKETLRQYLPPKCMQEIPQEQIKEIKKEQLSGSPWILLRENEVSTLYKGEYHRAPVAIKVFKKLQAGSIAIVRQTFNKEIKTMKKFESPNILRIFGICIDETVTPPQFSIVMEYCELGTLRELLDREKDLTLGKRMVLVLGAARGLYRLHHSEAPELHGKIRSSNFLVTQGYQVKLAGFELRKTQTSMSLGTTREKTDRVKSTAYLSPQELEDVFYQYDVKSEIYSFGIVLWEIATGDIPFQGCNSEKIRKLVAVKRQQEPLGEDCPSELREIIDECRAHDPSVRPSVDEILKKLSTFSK

T2: MLKL (human (endogenous in HT29, SUIT-020 and Jurkat)), Q8NB16
T2 chain: T1 sequence

B1: RIPK1, Q13546 1-671 (protein)
chain: MQPDMSLNVIKMKSSDFLESAELDSGGFGKVSLCFHRTQGLMIMKTVYKGPNCIEHNEALLEEAKMMNRLRHSRVVKLLGVIIEEGKYSLVMEYMEKGNLMHVLKAEMSTPLSVKGRIILEIIEGMCYLHGKGVIHKDLKPENILVDNDFHIKIADLGLASFKMWSKLNNEEHNELREVDGTAKKNGGTLYYMAPEHLNDVNAKPTEKSDVYSFAVVLWAIFANKEPYENAICEQQLIMCIKSGNRPDVDDITEYCPREIISLMKLCWEANPEARPTFPGIEEKFRPFYLSQLEESVEEDVKSLKKEYSNENAVVKRMQSLQLDCVAVPSSRSNSATEQPGSLHSSQGLGMGPVEESWFAPSLEHPQEENEPSLQSKLQDEANYHLYGSRMDRQTKQQPRQNVAYNREEERRRRVSHDPFAQQRPYENFQNTEGKGTAYSSAASHGNAVHQPSGLTSQPQVLYQNNGLYSSHGFGTRPLDPGTAGPRVWYRPIPSHMPSLHNIPVPETNYLGNTPTMPFSSLPPTDESIKYTIYNSTGIQIGAYNYMEIGGTSSSLLDSTNTNFKEEPAAKYQAIFDNTTSLTDKHLDPIRENLGKHWKNCARKLGFTQSQIDEIDHDYERDGLKEKVYQMLQKWVMREGIKGATVGKLAQALHQCSRIDLLSSLIYVSQN

Tests used:
[1] = biological target: phosphorylated form of RIPK1 (pRIPK1) (human (endogenous in HT29, SUIT-020 and Jurkat)) (UniProt Q13546); assay: affinity purification with mass spectrometry; qualitative analysis of pRIPK1-, FADD- and c-FLIP-IPs from HT29 cells, BV6/zVAD-fmk 1 h then 500 ng/ml CD95L 5 h; untreated and beads-only controls
[2] = biological target: FADD (human (endogenous in HT29, SUIT-020 and Jurkat)) (UniProt Q13158); assay: as above
[3] = biological target: phosphorylated form of RIPK1 (pRIPK1) (human (endogenous in HT29, SUIT-020 and Jurkat)) (UniProt Q13546); assay: affinity purification with mass spectrometry; quantitative AQUA peptide analysis (100 fmol of each heavy peptide) of pRIPK1-, FADD-, c-FLIP- and MLKL-IPs from HT29 cells and pRIPK1- and FADD-IPs from SUIT-020 cells after CD95L/BV6/zVAD-fmk
[4] = biological target: FADD (human (endogenous in HT29, SUIT-020 and Jurkat)) (UniProt Q13158); assay: as above
[5] = biological target: T1, MLKL (human (endogenous in HT29, SUIT-020 and Jurkat)); assay: as above
[6] = biological target: T2, MLKL (human (endogenous in HT29, …)); assay: as above; settings: remark: other sources report otherwise

| Molecule | binding [1] | binding [2] | other results |
| --- | --- | --- | --- |
| RIPK3 (from UniProt Q9Y572 1-518) | binds | binds | binding [3]: binds; binding [4]: binds |
| Recombinant LZ-CD95L (from UniProt P48023) (ligand) | no binding | no binding | – |
| FADD (from UniProt Q13158 1-208) | – | – | binding [5]: binds |
| B1 | – | – | binding [6]: binds |
